From US20150359884A1, “MULTI-PHOTON ISOMERISATION OF COMBRETASTATINS AND THEIR USE IN THERAPY” (priority 2011, published 2015)

Legend:
[1] = tested on: Chinese hamster ovary (CHO) cells; experiment: Fluorescence lifetime imaging (FLIM) of uptake and intracellular concentration in CHO cells; details: 2PE 628 nm
Description: (§1) Both HeLa and Chinese hamster ovary (CHO) cells were obtained from the European Collection of Cell Cultures. HeLa cells were cultured in MEM medium (Gibco) containing 10% foetal calf serum, penicillin (100 units/mL), streptomycin (100 μg/mL) and glutamine (2 mM). CHO cells were cultured in DMEM (Gibco) with the same additions as for the HeLa cells. For microscopy the adherent cell cultures were grown in 35 mm diameter glass-bottom culture dishes with optical quality glass (MatTek Corporation) and incubated at 37° C. in a humidified atmosphere containing 5% CO2. Human umbilical vein endothelial cells (HUVECs) were obtained from TCS Cellworks. HUVECs were sub-cultured in basal medium (TCS Cellworks) supplemented with antibiotic supplement/amphotericin-B, following the detailed guidelines provided by TCS Cellworks.
The fluorescence lifetime imaging system with multiphoton excitation employed lasers for multiphoton excitation consisting of a Ti:Sapphire laser, tuneable between 700 and 1000 nm and providing ca 180 fs pulses at 76 MHz, and an optical parametric oscillator (OPO) pumped by a second Ti:Sapphire laser source. […] Using the various microscope ports it was possible to record the fluorescence in a number of ways. The fluorescence signal at one port was relayed to a spectrometer (Acton 275) and CCD setup (Andor iDUS) so that emission spectra and intensities could be recorded. Alternatively the fluorescence signal could be routed via a second port to a time-correlated single photon counting (TCSPC) system (Becker and Hickl SPC-830) allowing fluorescence lifetime measurements and fluorescence lifetime imaging (FLIM), using Becker and Hickl software (SPCImage) for analysis. In FLIM mode the fluorescence was isolated by a suitable narrowband interference filter (400IU25 together with BG3 (Comar)). […] Two photon cross sections were determined using a reference fluorophore as a two photon standard as described by Mathai et al., employing published values of the two-photon cross section for 9-chloroanthracene. […]

HeLa cells = experiment: Fluorescence lifetime imaging (FLIM) of uptake and intracellular concentration in HeLa cells; details: 2PE 628 nm
Description: as §1, with “HUVECs were sub-cultured in basal medium (TCS Cellworks) supplemented with antibiotic supplement/amphotericin-B, following the detailed guidelines provided by TCS Cellworks.” left out
The fluorescence lifetime imaging system with multiphoton excitation employed lasers for multiphoton excitation consisting of a Ti:Sapphire laser, tuneable between 700 and 1000 nm and providing ca 180 fs pulses at 76 MHz, and an optical parametric oscillator (OPO) pumped by a second Ti:Sapphire laser source. […] Using the various microscope ports it was possible to record the fluorescence in a number of ways. The fluorescence signal at one port was relayed to a spectrometer (Acton 275) and CCD setup (Andor iDUS) so that emission spectra and intensities could be recorded. […] In FLIM mode the fluorescence was isolated by a suitable narrowband interference filter (400IU25 together with BG3 (Comar)). […]

[2] = tested on: human umbilical vein endothelial cells (HUVECs); experiment: Fluorescence lifetime imaging (FLIM) of uptake and intracellular concentration in HUVECs; type: cell-based; details: HUVEC
Description: Cell images were overlaid using Adobe Photoshop CS3.
Z-CA4 and analogues exert their anticancer activity by preventing the process of angiogenesis in which a growing tumour is supplied with new vasculature for the supply of nutrients via the bloodstream. We have therefore studied interactions between combretastatins and cultured HUVECs. […] Nevertheless it was possible to obtain images of cells after uptake upon E-combretastatin addition to the supporting medium at relatively low concentrations. […] In addition there are some punctate structures apparent in the images that appear to correlate with lipid droplets identified by Nile Red staining of the same cell. At 37° C. exact co-localization of the sequential images of combretastatin fluorescence and Nile Red labelled lipid droplets, obtained using the two different imaging systems attached to the microscope, is not possible because of the Brownian motion and the occasional rapid saltation of these structures that occur as a result of their transport upon the cellular microtubule network. The fluorescence lifetime distribution of intracellular E-CA4F observed in this cell simultaneously labelled with Nile Red peaks at ˜950 ps. […] The long lifetime of E-CA4F fluorescence in the HUVEC cell indicates a viscous environment for E-CA4F within the cell which is consistent with a lipidic location such as a membrane or lipid droplet. […]

SMILES | Peak (maximum) in the intracellular fluorescence lifetime distribution [1] | Peak in the intracellular fluorescence lifetime distribution (HeLa cells; 100 μmol dm^−3 in medium) [ps] | Peak in the intracellular fluorescence lifetime distribution (HeLa cells; 50 μmol dm^−3 in medium) [ns] | Peak of intracellular fluorescence lifetime distribution ([2]; 5 μM, 37° C., 60 min, simultaneously labelled with Nile Red) [ps] | Peak of intracellular fluorescence lifetime distribution ([2]; absence of Nile Red) [ps]
COc1ccc(/C=C/c2cc(OC)c(OC)c(OC)c2)cc1N [E-ACA, (E)-1-(3′-Amino-4′-methoxyphenyl)-2-(3″,4″,5″-trimethoxyphenyl)ethene] | 2.15 ns | – | – | – | –
COc1ccc(/C=C/c2cc(OC)c(OC)c(OC)c2)cc1O [E-CA4, (E)-1-(3′,4′,5′-Trimethoxyphenyl)-2-(4″-methoxy-3″-hydroxy-phenyl)ethene] | – | 900 | – | – | –
COc1ccc(/C=C/c2cc(OC)c(OC)c(OC)c2)cc1F [E-CA4F, (E)-1-(3′,4′,5′-trimethoxyphenyl)-2-(3″-fluoro-4″-methoxyphenyl)ethene] | very similar lifetime distribution | – | 1.1 | ~950 | 1100
COc1cc(/C=C/c2ccc(N(C)C)cc2)cc(OC)c1OC [E-DMAC, (E)-1-(3′,4′,5′-Trimethoxyphenyl)-2-(4″-dimethylamino-phenyl)ethene] | 1.07 ns | – | – | – | –
